Laboratory results published in PubChem BioAssay AID540256 (National Center for Advancing Translational Sciences (NCATS), 2011).
In all, about 300,000 compounds went through this assay and about 3,700 (1.2%) were called active. Inconclusive means that the source gave no clear call. Such entries were picked first, then a sample of the others. The call rests on the fitted dose curve; tested in HEK293 cells. Where the call is inconclusive, the potency comes from a doubtful curve fit.

Experiment: qHTS for Inhibitors of binding or entry into cells for Lassa Virus; further: nearly all actives have a fitted effect of over 50% in size
Conditions: Lassa virus pseudotype entry inhibition, cell reporter; series mostly up to 37.9 µM
Potency means the concentration at half of the fitted maximal effect.

Row | Structure (SMILES) | Potency
1 | Cc1cc[n+](C(C)C(=O)c2ccc(-c3ccccc3)cc2)cc1 (configuration not stated) | active: 10 µM
2 | CC(C)(C)c1ccc(/C=C/C(=O)Nc2ncccn2)cc1 | inconclusive: 0.58 µM [activator, full curve]
3 | COc1ccccc1NC(=O)Cn1c(=O)c(N(C)C)c(N)n(C)c1=O | inactive
4 | COc1cccc(-c2cc(C(=O)Nc3cccc(O)c3)no2)c1 | active: 6.51 µM
5 | CCn1ncc(Cl)c1C(=O)NC(C)c1ccccc1 (configuration not stated) | inactive
6 | COc1cccc(-c2cn3nc(C)c(C)nc3n2)c1 | inconclusive: 25.1 µM [inhibitor, single point]
7 | C=CCNC(=O)NC(=O)c1csc([N+](=O)[O-])c1 | inconclusive: 1.26 µM [inhibitor, single point]
8 | CCc1cccc(NC(=O)Cn2c(=O)n(CC(=O)NCCc3ccccc3)c(=O)c3ccccc32)c1 | inconclusive: 25.1 µM [inhibitor, single point]
9 | CC(C)CCn1c(=O)c2sccc2n2c(CCCC(=O)NCCc3ccccc3)nnc12 | inactive
10 | COc1cc(SC)ccc1C(=O)Nc1ccc2c(c1)CCC2 | inactive
11 | CCOCCCNC(=S)NCCNc1nc2ccc(C)cc2cc1C#N | inactive
12 | NS(=O)(=O)c1ccc(NC(=S)N2CCC(Cc3ccccc3)CC2)cc1 | inconclusive: 35.5 µM [inhibitor, single point]
13 | O=C(c1ccco1)N1CCN(c2ncnc3c2nnn3Cc2ccccc2Cl)CC1 | inactive
14 | O=C(CNC(=S)N(Cc1ccccc1)Cc1cccs1)NCc1ccc(F)cc1 | inconclusive: 22.4 µM [inhibitor, single point]
15 | Cc1ccc(-c2noc(CN(C(=O)CCN3C(=O)c4ccccc4C3=O)C(C)C)n2)cc1 | inconclusive: 0.0116 µM [inhibitor, full curve]
16 | CS(=O)(=O)N(Cc1ccc(Cl)cc1)c1ccc(C(=O)NCc2ccccn2)cc1 | inconclusive: 39.8 µM [inhibitor, single point]
17 | Cn1c(N)c(C(=O)Nc2ccc3ccccc3c2)sc1=S | inconclusive: 6.51 µM [activator, single point]
18 | COc1cc(CNC(C)c2ccccc2)cc(Br)c1OCc1ccc(F)cc1 (configuration not stated) | inconclusive: 35.5 µM [inhibitor, single point]
19 | COc1ccc(CN(C(=O)c2nsc(Cl)c2Cl)C(C(=O)NC2CCCCC2)c2ccc(OC)cc2)cc1 (configuration not stated) | inconclusive: 18.3 µM [inhibitor, single point]
20 | CC(CCc1ccccc1)NC(=O)COC(=O)c1ccc(S(C)(=O)=O)c([N+](=O)[O-])c1 (configuration not stated) | inconclusive: 12.6 µM [inhibitor, partial curve, poor fit]
21 | O=C(N/N=C/c1cc2c3c(c1O)CCCN3CCC2)c1ccccc1O | active: 1.3 µM
22 | CCCC(C)NC(=O)COc1ccc(Sc2ccc(OCC(=O)NC(C)CCC)cc2)cc1 (configuration not stated) | inconclusive: 6.31 µM [inhibitor, single point]
23 | C[C@@]1(CO)[C@H](O)CC[C@@]2(C)[C@H]1CC[C@H]1C[C@@H]3C[C@@]12CC[C@]3(O)CO | inconclusive: 0.731 µM [inhibitor, full curve]
24 | CCn1c(O)c(N=NC(=O)CNC(=O)/C=C/c2ccco2)c2ccccc21 | inactive

Row | Structure (SMILES) | Potency
25 | COC(=O)CNC(=O)c1ccccc1F | inconclusive: 3.26 µM [inhibitor, full curve]
26 | CCN(CC)C(=O)c1csc(Nc2ccc(C)cc2)n1 | inactive
27 | CCOC(=O)c1c(N)n(CCN2CCOCC2)c2nc3ccccc3nc12 | inconclusive: 0.58 µM [activator, full curve, poor fit]
28 | Cc1ccnc2nc(C(=O)Nc3nc(-c4ccccn4)cs3)nn12 | inactive
29 | Cc1cc2c(SCC(=O)Nc3ccccc3O)ncnc2s1 | inactive
30 | COC(=O)c1ccc(Cl)cc1NC(=O)/C=C/c1ccc(C)o1 | inactive
31 | CCCCNc1cnn(-c2ccccc2)c(=O)c1Cl | inconclusive: 22.4 µM [activator, single point]
32 | Cc1sc2cc(-c3cccc([N+](=O)[O-])c3)c(-c3cccc([N+](=O)[O-])c3)c[n+]2c1C | inactive
33 | CCN(CC)S(=O)(=O)c1cccc(C(=O)N[C@H](C(=O)Nc2nc3ccc(F)cc3s2)C(C)C)c1 | inconclusive: 25.1 µM [inhibitor, single point]
34 | CCOC(=O)N1CCN(C(=O)c2ccc3ccccc3c2)CC1 | inconclusive: 1 µM [activator, partial curve, poor fit]
35 | Cc1c2ccccc2nc2c(F)c(NCCO)c(F)c(F)c12 | inconclusive: 32.6 µM [inhibitor, partial curve, poor fit]
36 | Cc1cc(NC(=O)COC(=O)c2ccccc2S(=O)(=O)N(C)c2ccccc2)no1 | active: 2.51 µM
37 | Cc1cc(C)c(C)c(S(=O)(=O)N2CCN(C(=O)C3CSC4(C)CCC(=O)N34)CC2)c1C (configuration not stated) | inactive
38 | COc1ccccc1N1C(=O)N(C(C)=O)C2C1Nc1ccccc1N2C (configuration not stated) | inconclusive: 23.1 µM [inhibitor, single point]
39 | CCc1ccc(CN2CCCC(CNS(=O)(=O)c3ccc(OC)cc3)C2)cc1 (configuration not stated) | inconclusive: 35.5 µM [inhibitor, single point]
40 | Cc1ccc(C(=O)Nc2ccc(N3CCN(C)CC3)cc2)c(Cl)c1 | inactive
41 | CC(=O)Nc1ccc(S(=O)(=O)NCCSCc2cccc(Cl)c2)cc1 | inconclusive: 23.1 µM [inhibitor, single point]
42 | CCCOc1ccc(N2CC(C(=O)Nc3ccccc3C(=O)NC)CC2=O)cc1 (configuration not stated) | inactive
43 | COCCCNC(=O)c1ccc(-n2nc(C(F)(F)F)cc2-c2cccs2)cc1 | inactive
44 | CC(O)(CS(=O)(=O)c1ccccc1)C(=O)Nc1ccc(C(F)(F)F)cc1 (configuration not stated) | inconclusive: 25.9 µM [inhibitor, single point]
45 | COc1ccc(-c2c3c(=O)n(C)c(=O)n(C)c3cn2C2CCCCC2)cc1 | inconclusive: 20.6 µM [inhibitor, partial curve, poor fit]
46 | CN1C2CCC1CC(OC(=O)CCN1CCCC1)C2 (configuration not stated) | inactive
47 | CCN(Cc1ccccc1)S(=O)(=O)c1cc(C(=O)NC2CCCCCC2)ccc1OC | inconclusive: 18.4 µM [inhibitor, partial curve]

Rewritten field by field: entries from further up
COCCCNC(=O)c1ccc(-n2nc(C(F)(F)F)cc2-c2cccs2)cc1
  Potency: inactive
CC(O)(CS(=O)(=O)c1ccccc1)C(=O)Nc1ccc(C(F)(F)F)cc1 (configuration not stated)
  Potency: inconclusive: 25.9 µM [inhibitor, single point]
